# Data taken from the supplement of paper PMC12823440, “Inhibitors supercharge kinase turnover through native proteolytic circuits” (Nature, 2025).
# Protein sequences, listed by entry. Tags and fused reporters are not part of them. Lines headed by an entry give the natural chain unless they say otherwise; changes in a name come on top.
# UniProt Q05397, whole entry, looked up: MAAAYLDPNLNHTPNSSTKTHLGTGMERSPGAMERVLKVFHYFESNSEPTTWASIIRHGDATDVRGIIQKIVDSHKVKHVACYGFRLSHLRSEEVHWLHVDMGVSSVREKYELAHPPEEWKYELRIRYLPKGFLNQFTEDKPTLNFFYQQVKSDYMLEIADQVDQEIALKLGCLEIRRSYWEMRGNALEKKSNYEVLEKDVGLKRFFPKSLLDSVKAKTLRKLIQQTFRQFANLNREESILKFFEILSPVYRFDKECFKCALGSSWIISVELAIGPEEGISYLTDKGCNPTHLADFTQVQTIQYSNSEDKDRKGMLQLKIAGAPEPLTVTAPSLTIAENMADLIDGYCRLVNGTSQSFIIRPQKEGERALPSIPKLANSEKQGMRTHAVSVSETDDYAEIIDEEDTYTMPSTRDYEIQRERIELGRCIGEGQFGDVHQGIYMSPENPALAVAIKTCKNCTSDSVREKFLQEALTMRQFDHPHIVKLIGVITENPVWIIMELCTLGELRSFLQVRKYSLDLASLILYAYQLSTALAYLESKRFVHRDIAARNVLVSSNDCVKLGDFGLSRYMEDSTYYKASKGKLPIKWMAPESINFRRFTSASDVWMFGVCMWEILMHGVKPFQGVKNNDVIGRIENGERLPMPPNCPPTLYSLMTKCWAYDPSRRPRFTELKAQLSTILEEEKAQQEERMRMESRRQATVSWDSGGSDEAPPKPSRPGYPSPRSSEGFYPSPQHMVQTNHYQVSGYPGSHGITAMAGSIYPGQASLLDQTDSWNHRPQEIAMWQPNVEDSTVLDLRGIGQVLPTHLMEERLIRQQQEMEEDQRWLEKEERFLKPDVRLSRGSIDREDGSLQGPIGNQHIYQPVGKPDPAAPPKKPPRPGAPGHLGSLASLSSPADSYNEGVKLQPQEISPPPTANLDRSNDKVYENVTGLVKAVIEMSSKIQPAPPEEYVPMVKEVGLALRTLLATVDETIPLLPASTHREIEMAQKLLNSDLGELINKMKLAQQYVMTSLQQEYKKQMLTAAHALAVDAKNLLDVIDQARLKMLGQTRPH
# UniProt Q14289, whole entry, looked up: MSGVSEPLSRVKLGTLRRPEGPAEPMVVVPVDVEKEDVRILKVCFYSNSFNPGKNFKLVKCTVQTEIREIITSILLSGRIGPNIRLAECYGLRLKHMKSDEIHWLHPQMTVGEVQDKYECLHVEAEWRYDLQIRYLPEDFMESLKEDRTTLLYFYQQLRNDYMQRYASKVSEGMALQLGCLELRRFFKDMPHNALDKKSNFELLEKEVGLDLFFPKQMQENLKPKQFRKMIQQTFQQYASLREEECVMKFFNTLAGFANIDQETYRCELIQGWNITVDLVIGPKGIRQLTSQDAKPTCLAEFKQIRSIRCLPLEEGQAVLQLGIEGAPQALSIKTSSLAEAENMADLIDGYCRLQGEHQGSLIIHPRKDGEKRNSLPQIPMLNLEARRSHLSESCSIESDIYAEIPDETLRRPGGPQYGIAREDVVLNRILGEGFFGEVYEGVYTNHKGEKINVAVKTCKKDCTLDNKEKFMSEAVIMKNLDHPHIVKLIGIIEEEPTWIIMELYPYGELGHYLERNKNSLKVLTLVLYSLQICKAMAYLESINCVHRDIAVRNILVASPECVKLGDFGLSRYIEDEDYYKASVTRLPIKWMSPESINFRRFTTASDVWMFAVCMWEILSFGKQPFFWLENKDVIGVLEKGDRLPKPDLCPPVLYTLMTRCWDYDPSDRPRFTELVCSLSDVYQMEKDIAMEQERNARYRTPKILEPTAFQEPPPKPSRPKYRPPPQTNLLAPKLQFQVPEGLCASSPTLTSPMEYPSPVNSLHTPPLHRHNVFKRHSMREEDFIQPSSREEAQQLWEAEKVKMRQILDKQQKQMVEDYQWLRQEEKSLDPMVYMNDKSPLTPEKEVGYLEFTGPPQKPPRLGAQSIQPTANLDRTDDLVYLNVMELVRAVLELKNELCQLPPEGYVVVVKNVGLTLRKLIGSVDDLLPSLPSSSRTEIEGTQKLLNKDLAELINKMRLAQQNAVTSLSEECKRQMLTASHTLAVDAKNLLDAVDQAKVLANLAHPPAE
# UniProt P07949, whole entry, looked up: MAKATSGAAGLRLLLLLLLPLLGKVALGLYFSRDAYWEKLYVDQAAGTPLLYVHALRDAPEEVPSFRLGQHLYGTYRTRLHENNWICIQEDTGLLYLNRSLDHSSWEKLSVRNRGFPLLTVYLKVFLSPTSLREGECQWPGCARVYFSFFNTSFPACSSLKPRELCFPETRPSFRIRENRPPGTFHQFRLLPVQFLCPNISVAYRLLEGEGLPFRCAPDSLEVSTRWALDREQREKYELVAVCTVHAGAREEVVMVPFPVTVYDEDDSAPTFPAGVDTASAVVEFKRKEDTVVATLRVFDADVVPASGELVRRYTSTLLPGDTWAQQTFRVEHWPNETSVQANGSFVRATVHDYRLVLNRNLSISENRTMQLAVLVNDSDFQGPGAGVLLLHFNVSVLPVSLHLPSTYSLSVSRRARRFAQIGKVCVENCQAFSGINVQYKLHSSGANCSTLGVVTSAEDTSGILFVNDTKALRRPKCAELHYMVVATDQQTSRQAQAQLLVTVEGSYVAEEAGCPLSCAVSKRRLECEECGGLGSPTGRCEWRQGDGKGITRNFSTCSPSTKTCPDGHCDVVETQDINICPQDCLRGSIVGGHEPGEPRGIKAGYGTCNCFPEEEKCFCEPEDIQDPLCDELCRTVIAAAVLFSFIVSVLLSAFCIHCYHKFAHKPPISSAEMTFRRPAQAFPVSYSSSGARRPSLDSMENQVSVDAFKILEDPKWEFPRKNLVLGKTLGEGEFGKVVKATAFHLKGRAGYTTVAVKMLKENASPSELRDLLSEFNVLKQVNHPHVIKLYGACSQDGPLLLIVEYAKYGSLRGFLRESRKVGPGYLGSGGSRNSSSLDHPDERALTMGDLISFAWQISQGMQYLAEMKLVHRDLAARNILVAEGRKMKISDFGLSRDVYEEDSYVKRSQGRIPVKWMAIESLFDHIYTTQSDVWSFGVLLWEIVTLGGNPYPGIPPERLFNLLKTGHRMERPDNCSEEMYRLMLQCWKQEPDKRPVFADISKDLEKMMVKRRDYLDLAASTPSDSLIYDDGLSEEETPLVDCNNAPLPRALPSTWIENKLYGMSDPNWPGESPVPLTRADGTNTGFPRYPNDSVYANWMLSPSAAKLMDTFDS
# UniProt P07949, whole entry M918T, looked up: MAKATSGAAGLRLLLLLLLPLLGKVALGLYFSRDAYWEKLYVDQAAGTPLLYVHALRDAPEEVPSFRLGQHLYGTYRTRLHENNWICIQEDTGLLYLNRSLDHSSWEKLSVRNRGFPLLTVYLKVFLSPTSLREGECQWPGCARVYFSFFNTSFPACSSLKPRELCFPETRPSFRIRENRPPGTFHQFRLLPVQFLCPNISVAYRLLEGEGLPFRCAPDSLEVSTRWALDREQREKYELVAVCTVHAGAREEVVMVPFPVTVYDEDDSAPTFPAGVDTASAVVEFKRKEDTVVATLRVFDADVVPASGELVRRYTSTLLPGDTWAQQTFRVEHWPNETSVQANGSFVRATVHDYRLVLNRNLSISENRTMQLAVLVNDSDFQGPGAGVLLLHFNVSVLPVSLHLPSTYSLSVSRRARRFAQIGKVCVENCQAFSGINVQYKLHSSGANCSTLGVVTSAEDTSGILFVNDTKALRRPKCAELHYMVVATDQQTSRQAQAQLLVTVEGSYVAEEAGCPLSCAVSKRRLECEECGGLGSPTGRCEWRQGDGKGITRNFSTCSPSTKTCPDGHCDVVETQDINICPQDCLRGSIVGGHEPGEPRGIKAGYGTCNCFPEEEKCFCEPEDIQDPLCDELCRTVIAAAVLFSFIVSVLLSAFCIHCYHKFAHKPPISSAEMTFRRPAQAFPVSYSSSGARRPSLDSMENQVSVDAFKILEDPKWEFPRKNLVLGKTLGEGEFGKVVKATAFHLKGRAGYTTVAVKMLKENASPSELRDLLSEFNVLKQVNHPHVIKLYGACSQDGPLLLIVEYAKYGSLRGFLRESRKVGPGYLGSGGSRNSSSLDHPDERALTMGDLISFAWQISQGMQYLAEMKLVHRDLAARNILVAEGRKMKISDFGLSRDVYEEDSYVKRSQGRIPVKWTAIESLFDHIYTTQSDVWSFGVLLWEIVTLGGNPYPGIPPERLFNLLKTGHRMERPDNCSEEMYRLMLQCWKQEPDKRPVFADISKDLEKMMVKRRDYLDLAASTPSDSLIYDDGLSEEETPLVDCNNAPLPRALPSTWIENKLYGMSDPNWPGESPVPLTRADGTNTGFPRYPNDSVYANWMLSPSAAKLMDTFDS
# UniProt Q9BRS2: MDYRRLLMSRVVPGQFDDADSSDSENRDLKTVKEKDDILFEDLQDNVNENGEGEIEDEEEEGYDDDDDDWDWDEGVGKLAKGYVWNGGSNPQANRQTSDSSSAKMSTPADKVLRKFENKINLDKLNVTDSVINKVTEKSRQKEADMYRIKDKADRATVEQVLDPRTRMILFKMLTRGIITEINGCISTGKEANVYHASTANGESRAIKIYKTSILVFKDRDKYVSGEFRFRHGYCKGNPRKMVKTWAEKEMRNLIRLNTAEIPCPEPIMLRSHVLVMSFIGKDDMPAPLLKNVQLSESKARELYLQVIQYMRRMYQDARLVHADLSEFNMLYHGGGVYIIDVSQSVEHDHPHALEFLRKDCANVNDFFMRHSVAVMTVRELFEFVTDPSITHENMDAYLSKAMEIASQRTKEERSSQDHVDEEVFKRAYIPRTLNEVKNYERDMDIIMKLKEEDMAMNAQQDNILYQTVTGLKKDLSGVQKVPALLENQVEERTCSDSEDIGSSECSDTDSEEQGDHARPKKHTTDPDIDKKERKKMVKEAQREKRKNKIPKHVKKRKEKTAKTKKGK
# UniProt Q13546: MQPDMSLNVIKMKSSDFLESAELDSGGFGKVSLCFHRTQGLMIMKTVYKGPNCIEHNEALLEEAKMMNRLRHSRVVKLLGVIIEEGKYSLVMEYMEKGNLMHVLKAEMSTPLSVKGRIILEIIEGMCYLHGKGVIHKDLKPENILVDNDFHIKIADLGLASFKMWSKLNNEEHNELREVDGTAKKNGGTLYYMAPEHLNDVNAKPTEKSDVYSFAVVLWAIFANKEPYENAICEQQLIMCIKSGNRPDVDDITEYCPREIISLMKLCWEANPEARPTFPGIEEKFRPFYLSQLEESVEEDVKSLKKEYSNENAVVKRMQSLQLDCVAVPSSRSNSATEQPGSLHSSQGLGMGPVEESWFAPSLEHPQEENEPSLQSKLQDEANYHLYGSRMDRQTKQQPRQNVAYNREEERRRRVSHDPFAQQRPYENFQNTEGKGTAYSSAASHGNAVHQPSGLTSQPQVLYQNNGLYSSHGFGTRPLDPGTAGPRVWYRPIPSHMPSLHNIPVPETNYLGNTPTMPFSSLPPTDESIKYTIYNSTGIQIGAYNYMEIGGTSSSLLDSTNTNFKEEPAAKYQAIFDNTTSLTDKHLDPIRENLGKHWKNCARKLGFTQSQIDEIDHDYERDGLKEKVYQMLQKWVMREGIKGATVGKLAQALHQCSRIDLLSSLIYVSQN
# Counter-ions that a name gives are not always drawn. The list shows a part of the results. The calls rarely recur for the same compound in another form.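 In K562 cells expressing nanoluciferase-fused kinases, luminescence was recorded at 4 h intervals between 2 and 18 h, normalized as percent of control with DMSO at 100% and a positive control at 0%. A significant (2 sigma) signal drop marks a time point as decreased. The authors' rule for a hit is not shown and takes in more than the number of time points.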
# Key:
# Assay in all cases: number of time points (of 5) at which kinase-Nluc abundance scored as decreased, DMSO-normalised (count); higher = more persistent destabilization
# Details in all cases: K562; 2-18 h
# PRKCA = PRKCA (UniProt P17252)
# PTK2 = PTK2 (UniProt Q05397)
# PTK2B = PTK2B (UniProt Q14289)
# RAF1 = RAF1 (UniProt P04049)
# [1] = target: RAF1_S257L (clone: RAF1_mut) (UniProt P04049)
# RET = RET (UniProt P07949)
# [2] = target: RET_M918T (clone: RET_mut) (UniProt P07949)
# RIOK1 = RIOK1 (UniProt Q9BRS2)
# RIPK1 = RIPK1 (UniProt Q13546)
# RIPK2 = RIPK2 (UniProt O43353)
Structure (SMILES),number of time points (PRKCA),number of time points (PTK2),number of time points (PTK2B),number of time points (RAF1),number of time points [1],number of time points (RET),number of time points [2],number of time points (RIOK1),number of time points (RIPK1),number of time points (RIPK2)
Cc1cccc(-c2[nH]ncc2-c2ccc(F)c(-c3cnn(CCO)c3)c2)n1 (10 µM),0,0,0,0,0,0,0,0,0,0
Cc1[nH]c(/C=C2\C(=O)Nc3ccc(F)cc32)c(C)c1C(=O)N[C@H]1CCN(C(=O)N(C)C)C1 [Vorolanib] (10 µM),0,0,0,0,0,0,0,0,0,0
O=C(N/N=C/c1coc2ccccc2c1=O)c1cccnc1 (10 µM),0,0,0,0,0,0,0,0,0,0
COc1cc(Nc2ncc(F)c(Nc3ccc4c(n3)N(COP(=O)(O)O)C(=O)C(C)(C)O4)n2)cc(OC)c1OC [Fostamatinib Disodium] (10 µM),0,0,0,0,0,0,0,0,0,0
FC(F)(F)c1ccc(CNc2ccc(Cc3c[nH]c4ncccc34)cn2)cc1 (10 µM),0,0,0,0,0,0,0,0,0,0
CCc1cc2c(cc1N1CCC(N3CCOCC3)CC1)C(C)(C)c1[nH]c3cc(C#N)ccc3c1C2=O [Alectinib] (10 µM),0,0,0,0,0,0,0,0,0,0
Oc1ccc(Nc2nc(-c3ccc(Cl)cc3)cs2)cc1 (10 µM),0,0,0,0,0,0,0,0,0,0
CCCS(=O)(=O)Nc1ccc(F)c(C(=O)c2c[nH]c3ncc(-c4ccc(Cl)cc4)cc23)c1F [Vemurafenib] (10 µM),0,1,0,1,0,1,1,0,0,0
O=C(NCCN1CCCC1)c1cc(-c2ccc(CN3CCOCC3)cc2)nc2ccc(F)cc12 (10 µM),0,0,0,0,0,0,0,0,0,0
COc1ccccc1-c1cc(Nc2cccc(CS(N)(=O)=O)c2)ncn1 (10 µM),0,2,0,0,2,0,0,0,2,0
O=C1NC(=O)/C(=C\c2cccc(C(F)(F)F)c2)S1 (2.5 µM),0,0,0,0,0,0,0,0,0,0
C[C@@H]1CCN(C(=O)CC#N)C[C@@H]1N(C)c1ncnc2[nH]ccc12 [Tofacitinib] (10 µM),0,0,,0,0,0,0,0,0,0
COc1cc2c(N3CCN(C(=O)Nc4ccc(OC(C)C)cc4)CC3)ncnc2cc1OCCCN1CCCCC1 [Tandutinib (hydrochloride)] (10 µM),0,0,0,0,0,0,0,0,0,0
CCN1CCN(Cc2ccc(-c3cc4c(N[C@H](C)c5ccccc5)ncnc4[nH]3)cc2)CC1 (2.5 µM),0,2,0,2,4,2,0,3,3,1
C=CC(=O)Nc1cc(C)ccc1Nc1nc(Nc2cc(OC)ncc2C)ncc1C(F)(F)F (10 µM),0,0,0,0,0,0,0,0,0,0
Cc1ccc2nc(NCCN)c3ncc(C)n3c2c1 (2.5 µM),0,0,0,0,0,0,0,0,,0
CNC(=O)c1ccc(C)c(-n2c(C)cc(OCc3ccc(F)cc3F)c(Br)c2=O)c1 (10 µM),0,0,0,0,0,0,0,0,0,0

Structure (SMILES),number of time points (PRKCA),number of time points (PTK2),number of time points (PTK2B),number of time points (RAF1),number of time points [1],number of time points (RET),number of time points [2],number of time points (RIOK1),number of time points (RIPK1),number of time points (RIPK2)
COc1ccc2c(OCc3nnc4ccc(-c5ccccc5)nn34)ccnc2c1 (2 µM),0,0,0,0,0,0,0,0,0,0
Cn1nccc1Nc1nccc(-c2ccn([C@H](CO)c3ccc(Cl)c(F)c3)c(=O)c2)n1 [Ravoxertinib hydrochloride] (10 µM),0,0,0,0,0,0,0,0,0,0
COc1cc2ncc(-c3ccccc3)nc2cc1OC [Tyrphostin AG1296] (10 µM),0,0,0,0,0,0,0,0,0,0
CC1CCc2c(cc(Br)c(F)c2Br)N1C=O (stereo unspecified) (10 µM),0,0,0,0,0,0,0,0,0,0
c1cncc(CN2CCC(n3ncc4c(N5CCOCC5)nc(-c5ccc6[nH]ccc6c5)nc43)CC2)c1 (10 µM),0,1,0,2,4,0,4,1,0,3
Cc1c(-c2c(F)cc(C(N)=O)c3[nH]c4c(c23)CC[C@H](C(C)(C)O)C4)cccc1-n1c(=O)c2cccc(F)c2n(C)c1=O (2.5 µM),0,0,0,0,0,0,0,0,0,0
CC(=O)c1c(C)cc2cccc(O)c2c1O [Nepodin] (10 µM),0,0,0,0,0,0,0,0,0,0
Oc1cc(O)c2cc(O)c(-c3cc(O)c(O)c(O)c3)[o+]c2c1 [Delphinidin (chloride)] (10 µM),0,2,0,0,0,0,0,1,1,4
COc1cc(OC2CCN(C)CC2)ccc1Nc1ncc2c(n1)n(C1CCCC1)c(=O)n2C (10 µM),0,0,0,0,0,0,0,0,0,0
CC[C@@H](Oc1nc(Oc2cc(C)cc(-c3cccc(CN)c3)c2)c(F)cc1F)C(=O)O (10 µM),0,0,0,0,0,0,0,0,0,0
COc1cc(Nc2ncc(F)c(Nc3ccc4c(n3)NC(=O)C(C)(C)O4)n2)cc(OC)c1OC (10 µM),0,0,,0,0,,,0,0,0
CC#CC(=O)N1CC[C@@H](n2c(=O)n(-c3ccc(Oc4ccccc4)cc3)c3c(N)ncnc32)C1 [Tirabrutinib (hydrochloride)] (10 µM),0,0,0,0,0,0,0,0,0,0
NS(=O)(=O)c1ccc(-n2nc(C(F)(F)F)cc2-c2ccc(Cl)cc2)cc1 (10 µM),0,0,0,0,0,0,0,0,0,0
C[C@]1(O)CCN(c2nc(N3C[C@H](O)[C@@H](O)C3)cc(C(F)(F)F)c2C#N)C1 (10 µM),0,0,0,0,0,0,0,0,0,0
COc1cc(Nc2ncc(F)c(Nc3ccc4c(n3)NC(=O)C(C)(C)O4)n2)cc(OC)c1OC [R406 (free base)] (10 µM),0,0,,0,0,,,0,0,0
C[C@@H]1CCN(C(=O)CC#N)C[C@@H]1N(C)c1ncnc2[nH]ccc12 [Tofacitinib (citrate)] (10 µM),0,0,,0,0,0,0,0,0,0

# Fetched one by one from above (two):
Structure (SMILES),number of time points (PRKCA),number of time points (PTK2),number of time points (PTK2B),number of time points (RAF1),number of time points [1],number of time points (RET),number of time points [2],number of time points (RIOK1),number of time points (RIPK1),number of time points (RIPK2)
Cc1c(-c2c(F)cc(C(N)=O)c3[nH]c4c(c23)CC[C@H](C(C)(C)O)C4)cccc1-n1c(=O)c2cccc(F)c2n(C)c1=O (2.5 µM),0,0,0,0,0,0,0,0,0,0
Oc1cc(O)c2cc(O)c(-c3cc(O)c(O)c(O)c3)[o+]c2c1 [Delphinidin (chloride)] (10 µM),0,2,0,0,0,0,0,1,1,4
